Data as given in patent US5599559A, “Calcium channel blocking polypeptide from agelenopsis aperta and therapeutic methods employing it” (priority 1995, dated 1997).

System: calcium channels
Assay type: cell-based, rats
Details: read-out: IC50 for blocking calcium channels; pH 7.4

For `COC(=O)C1=C(C)NC(C)=C(C(=O)OC)C1c1ccccc1[N+](=O)[O-]` [Nifedipine], the IC50 was 33 nM.
